In paper PMC11255254, “ER-associated VAP27-1 and VAP27-3 proteins functionally link the lipid-binding ORP2A at the ER-chloroplast contact sites” (Nature Communications, 2024):
These are yes or no findings as the source states them, for the method shown. A result given as binding can be weak or reduced; the word gives no strength. For some of these results: In cells and extracts the contact can be indirect. For some of these results: Sequences can lack the tags named with a protein.

Sequences of proteins named here, by UniProt entry; tags and fusion partners are left off. A change or cut given only in a name is not applied to a line headed by its entry.
UniProt Q8VZ95: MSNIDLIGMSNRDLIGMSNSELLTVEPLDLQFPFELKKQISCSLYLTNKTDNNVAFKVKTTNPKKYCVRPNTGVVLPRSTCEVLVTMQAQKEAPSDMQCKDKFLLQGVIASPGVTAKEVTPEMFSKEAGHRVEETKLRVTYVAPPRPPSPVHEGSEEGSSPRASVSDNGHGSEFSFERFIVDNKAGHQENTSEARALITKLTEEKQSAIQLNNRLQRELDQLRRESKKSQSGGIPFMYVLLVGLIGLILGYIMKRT

B1: full-length ORP2A, yeast two-hybrid prey (protein, UniProt Q940Y1 1-721)
chain: MRVKELHPLCCITLESPHGINSQSPEEPVTTALTRSRSLPAKSLTGGSESETVAGILYKWTNFGKGWRSRWFLLRNGILSYSKIRRPENLNLLSPDDDVRLIGDISGERLSRMDSCSGRRKQQKTVGIVHLKVSSFRESKSDDRKFYIFTATKTLHLRTDSITDRAAWLQALASTKCIFPLRSLNGDFSFIPPKDLSISTERLKKRLHEEGMNENLVKECEQIMLSEFSEMHGQVKLLHEERTNLLDALRQLEAANLEVGASGKHEFSSLGRGKYSECSTTASSDGKQEFEDVSEEDEPSFHDTKEFFNEPNIGSESNLAISGHTDIKRRTKLPDPAEKEKGVSLWSMIKDNVGKDLTRVCLPVYFNEPISSLQKCFEDLEYSYLLDRAYEHGKSGNGLLRALNVAAFAVSGYASTEGRHCKPFNPLLGETYEADFPEKGIRFFSEKVSHHPTVIACHCEGKGWKFWGDTNLRSKFWGRSIQVEPVGVLTLEFDDGEVFQWSKVTSTIYNIILGKLYCDHHGVMQIRGNRQYSCTLKFKEQSILERNPHQVNGFVEDVAGQKAATIFGKWDDSLYYVAGDGINKSKVSDPASNASLLWKRTKPPPNVTRYNLTSFAITLNELTPGLQEILPPTDSRLRPDQRHLENGEYEKANLEKQRLERRQRMSRQLQESGWRPRWFERQGESDTFKYTGGYWEARGHRNWDDCPDIFGEFTEELADAA
B2: His-ORP2A (full-length ORP2A fused to His) (protein, UniProt Q940Y1 1-721)
chain: B1 chain

Assays:
[1] = target: VAP27-1ΔTMD (cytosolic domain of VAP27-1), yeast two-hybrid bait (Arabidopsis thaliana) (UniProt Q8VZ95); assay: two-hybrid; direct yeast two-hybrid; VAP27ΔTMD as baits, full-length ORP2A as prey
[2] = target: VAP27-3ΔTMD (cytosolic domain of VAP27-3), yeast two-hybrid bait (Arabidopsis thaliana); assay: as above
[3] = target: GST-VAP27-1ΔTMD (Arabidopsis thaliana) (UniProt Q8VZ95); assay: pull-down; His-ORP2A extracted from E. coli in lysis buffer (50 mM NaH2PO4, 300 mM NaCl, pH 8.0) incubated with recombinant GST-VAP27 (ΔTMD) fixed on glutathione agarose; eluates blotted with anti-His serum
[4] = target: GST-VAP27-3ΔTMD (Arabidopsis thaliana); assay: as above

Binder	binding [1]	binding [2]	binding [3]	binding [4]
B1	binds	binds		
B2			binds	binds
